Laboratory results published in PubChem BioAssay AID2685 (National Center for Advancing Translational Sciences (NCATS), 2010).
About 2,100 (0.66%) of roughly 320,000 compounds were called active. The inconclusive results got no clear call from the source; some entries with a clear call stand among them for comparison. Calls follow the shape of the dose curve; as a rule, active = well fitted inhibition curve with a large enough effect in the signal ratio, with a control signal flat (not every such curve was filed as active); inconclusive = small, poorly fitted or top-dose-only effect, or effect the other way, or a change in a side signal; inactive = flat fitted curve, though single readings scatter; the % refers to the signal ratio. Potencies beside an inconclusive call are fits to weak or partial responses and may not hold up.
% is scaled to controls: 0 for no effect and ±100 for the full control effect; potency is read from the fitted curve at half-maximal effect.

Assay: qHTS Assay for Lipid Storage Modulators in Drosophila S3 Cells
Conditions: BODIPY lipid droplet fluorescence, 18-24 h, cells fed with added oleic acid; lipid storage change, negative = inhibition: at 46.1 µM (top of the series) unless noted
Method in brief: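 Drosophila S3 cells loaded with oleic acid (400 uM, as added) and compounds at several concentrations; lipid droplets imaged by 488-nm laser-scanning cytometry, 500–530 nm intensity and object ratio to cell channel. Percent activity normalized to 20 uM Triacsin C.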
With `COc1ccc(NC(=O)c2ccc3ncsc3c2)c2ccccc12` the lipid storage change, negative = inhibition was inconclusive: 21.9%.
With `Cc1cc(C)nc(N2CCCC(C(=O)NCc3ccccc3F)C2)n1` (stereo unspecified) the lipid storage change, negative = inhibition was inconclusive: 16.9%.
In the case of `CCOC(=O)c1cc(C#N)c(SCC(=O)O)[nH]c1=O`, the lipid storage change, negative = inhibition is reported as inconclusive: -47.1%.
In the case of `Cc1cc(O)ccc1N/C=C1\CCCC1=O`, the Potency is reported as inconclusive: 6.51 µM [activator, single point].
With `Cc1ccc(NC(=O)Nc2ccc3c(c2)C(=O)OC3)cc1Cl` the lipid storage change, negative = inhibition was inconclusive: 11.1%.
With `COCCn1c(C)cc(C(=O)COc2ccc(C)nc2[N+](=O)[O-])c1C` the lipid storage change, negative = inhibition was inconclusive: 7.04%.
For `CCOC(=O)C1(Cc2cccc(OC)c2)CCCN(S(=O)(=O)CC)C1` (stereo unspecified), the lipid storage change, negative = inhibition was inconclusive: 17.4%.
In the case of `Cc1ccccc1C(=O)N/N=C1/SCC(=O)N1Cc1ccc2c(c1)OCO2`, the Potency is reported as inconclusive: 0.411 µM [activator, full curve, poor fit].
For `CCCCCc1c(C)nc(N2CCc3ccccc3C2)[nH]c1=O`, the lipid storage change, negative = inhibition was inconclusive: -89.9%.
In the case of `COC(=O)c1ccc(OCC(=O)c2ccc(C)c(C)c2)cc1`, the Potency is reported as inconclusive: 14.6 µM [activator, single point].
In the case of `COc1ccccc1NC(=O)c1[nH]c(C)c(C(C)=O)c1C`, the Potency is reported as inconclusive: 2.06 µM [falling, full curve, poor fit].
With `COc1ccc(CNC(=O)CN(c2cc(C)cc(C)c2)S(=O)(=O)c2c(C)noc2C)cc1` the lipid storage change, negative = inhibition was inconclusive: 12.2% [at 9.22 µM].
With `CCCNC(=O)c1ccc2c(=O)n3c(-c4ccc(C)cc4)csc3nc2c1` the lipid storage change, negative = inhibition was inconclusive: 16.3%.
For `CC1(C)NC(=O)N(CC(=O)N2CCN(S(=O)(=O)c3cc(Cl)ccc3Cl)CC2)C1=O`, the lipid storage change, negative = inhibition was inconclusive: -19.5%.
For `O=C(Cn1c(CO)nc2ccccc21)Nc1ccc2c(c1)OCCCO2`, the lipid storage change, negative = inhibition was inconclusive: -37.1%.
In the case of `O=C(NNc1cccc(Cl)n1)c1ccc(Cl)nc1`, the Potency is reported as inconclusive: 10.3 µM [activator, single point].
With `COc1ccccc1N(CC(=O)N/N=C/c1ccc(SC)cc1)S(C)(=O)=O` the lipid storage change, negative = inhibition was inconclusive: 15.2%.
For `Cc1ccc(NC(=O)C(=Cc2ccc(C(=O)O)cc2)C(=O)Nc2ccc(C)cc2C)c(C)c1`, the lipid storage change, negative = inhibition was inconclusive: -48.4%.
For `Cc1ccc(NC(=O)CNCc2cccs2)cc1Br`, the lipid storage change, negative = inhibition was inconclusive: -64.2%.
For `COc1cc2c(cc1OC)CN(C(=O)CCOc1ccccc1)CC2`, the lipid storage change, negative = inhibition was inconclusive: 53.6%.
For `COC(=O)c1ccccc1NC(=O)CSc1ccc(C)cc1`, the lipid storage change, negative = inhibition was inconclusive: 13%.
In the case of `COc1ccc2cc(CN(Cc3ccco3)Cc3nnnn3C3CCCCC3)c(=O)[nH]c2c1`, the Potency is reported as inconclusive: 29.1 µM [cytotoxic, single point].
With `CCc1ccc(NC(=O)C2CCCN2S(=O)(=O)c2ccc3c(c2)n(C)c(=O)c(=O)n3C)cc1` (stereo unspecified) the lipid storage change, negative = inhibition was inconclusive: 18.1%.
In the case of `CCOC(=O)C/C(C)=N/NC(=O)c1cccs1`, the Potency is reported as inconclusive: 0.082 µM [falling, full curve, poor fit].
For `CCN1CCc2c(sc(NC(=O)Cc3ccccc3)c2C(=O)OC)C1`, the lipid storage change, negative = inhibition was inconclusive: -8.14%.
For `COc1cccc(C(=O)/C=C2\NCCc3cc(OC)c(OC)cc32)c1`, the lipid storage change, negative = inhibition was inconclusive: -41.8%.
With `CC1CN(C(=O)COc2ncnc3ccccc23)CC(C)O1` (stereo unspecified) the Potency was inconclusive: 29.1 µM [rising, single point].
In the case of `CCCn1c2ccccc2c2nnc(SCC(=O)OCC)nc21`, the Potency is reported as inconclusive: 29.1 µM [activator, single point].
With `COc1cc(CN2CCN(C(=O)c3cccc4ccccc34)CC2)cc(OC)c1OC` the lipid storage change, negative = inhibition was inconclusive: -1.16%.
For `Nc1sc2c(c1C(=O)NC1CCS(=O)(=O)C1)CCCC2` (stereo unspecified), the lipid storage change, negative = inhibition was inconclusive: 3.95%.
In the case of `O=C1CCC(=O)N1c1ccc(S(=O)(=O)Nc2cccc([N+](=O)[O-])c2)cc1`, the Potency is reported as inconclusive: 29.1 µM [activator, single point].
With `C[C@@H](C(=O)Nc1ccc2ccccc2c1)[C@H]1C[C@]1(C)[C@H](NC(=O)c1cnccn1)c1ccccc1` the lipid storage change, negative = inhibition was inconclusive: 28.3%.
In the case of `c1ccc(-c2nc(NCc3cccs3)c3ccccc3n2)cc1`, the Potency is reported as inconclusive: 25.9 µM [activator, single point].
In the case of `Cc1ccc(S(=O)(=O)N2CCOCC2)cc1C(=O)N1CCOCC1`, the Potency is reported as inconclusive: 6.51 µM [activator, full curve, poor fit].
For `CC(NC(=O)c1ccc(C(=O)c2ccccc2)cc1)c1ccc(S(N)(=O)=O)cc1` (stereo unspecified), the Potency was inconclusive: 0.461 µM [falling, full curve].
For `N#Cc1nc(COc2ccc(Br)cc2)oc1N1CCCC1`, the Potency was inconclusive: 0.58 µM [activator, single point].
In the case of `O=C(CCNS(=O)(=O)c1ccc(Br)s1)NCc1ccccc1Cl`, the lipid storage change, negative = inhibition is reported as inconclusive: -18.6%.
In the case of `CC(=O)c1ccc(N2CCN(Cc3nc(Cc4ccccc4)no3)CC2)cc1`, the lipid storage change, negative = inhibition is reported as inconclusive: 25.6%.
With `NS(=O)(=O)c1ccc(-c2c(-c3ccccc3)sc3ccccc23)cc1` the Potency was inconclusive: 0.58 µM [activator, partial curve].
For `CCOc1ccc(S(=O)(=O)N(C)CC(=O)N2CCN(CC)CC2)cc1`, the Potency was inconclusive: 2.59 µM [activator, single point].
For `COc1cccc(NC(=O)c2ccc(CN3CCOCC3)cc2)c1`, the lipid storage change, negative = inhibition was inconclusive: -8.36%.
With `Cc1cc(C)n(Cc2ccc(C(=O)O)cc2)n1` the lipid storage change, negative = inhibition was inconclusive: -31.6%.
For `CSc1cccc(NS(=O)(=O)c2cccc3nsnc23)c1`, the Potency was inconclusive: 16.4 µM [activator, single point].
With `CCOc1ccc(N2C(=O)CC(N3CCN(C(=O)c4ccco4)CC3)C2=O)cc1` (stereo unspecified) the lipid storage change, negative = inhibition was inconclusive: 2.64%.
With `CCOC(=O)C(NC(C)=O)(N1CCc2ccccc2C1)C(F)(F)F` (stereo unspecified) the lipid storage change, negative = inhibition was inconclusive: -5.52%.
With `O=C(COC(=O)c1ccccn1)Nc1c(Cl)cccc1Cl` the Potency was active: 16.4 µM.
With `CCCc1nnc(NC(=O)CCC(=O)NCc2ccccc2Cl)s1` the lipid storage change, negative = inhibition was inconclusive: 194%.
With `CCCNC(=O)COC(=O)c1ccc(OCC(=O)Nc2ccccc2OC)c(OC)c1` the lipid storage change, negative = inhibition was inconclusive: -2.03%.
With `CCc1nnc(NC(=O)c2cnccn2)s1` the lipid storage change, negative = inhibition was inconclusive: -45%.
For `O=C1/C(=C\c2ccc(-c3ccccc3Cl)o2)SC(=S)N1CC1CCCO1` (stereo unspecified), the lipid storage change, negative = inhibition was inconclusive: 8.11%.
For `COc1ccc(C(=O)O)cc1Nc1cc(C)nc2ncnn12`, the Potency was inconclusive: 6.51 µM [falling, single point].
In the case of `COc1cccc2cc(C(=O)NCc3ccco3)c(=Nc3ccc(C(=O)O)cc3)oc12`, the lipid storage change, negative = inhibition is reported as inconclusive: 5.15%.
With `CC1(C)N([O-])C2=C(CCCC2)[N+]1=O` the lipid storage change, negative = inhibition was inconclusive: -3.79%.
In the case of `O=C(COc1ccc(S(=O)(=O)N2CCCC2)cc1Cl)NCc1ccco1`, the Potency is reported as inconclusive: 29.1 µM [activator, single point].
For `Oc1ccc(/C=N/n2c(-c3ccco3)csc2=Nc2cccnc2)c(O)c1`, the lipid storage change, negative = inhibition was inconclusive: 25.5%.
With `CC12CC(O)C3c4ccc(O)cc4CCC3C1CC/C2=N\O` (stereo unspecified) the lipid storage change, negative = inhibition was inconclusive: 20.8%.
For `Cc1ccsc1C(=O)OCC(=O)c1cc(C)n(CC2CCCO2)c1C` (stereo unspecified), the lipid storage change, negative = inhibition was inconclusive: 10.4%.
With `c1ccc(CCNc2nc(-c3ccncc3)nc3ccccc23)cc1` the lipid storage change, negative = inhibition was inconclusive: 32.2%.
For `O=C1c2ccccc2C(Nc2ccc3c(c2)OCCO3)N1Cc1ccco1` (stereo unspecified), the lipid storage change, negative = inhibition was inconclusive: -18.4%.
With `COc1ccc(-n2c(-c3ccc(Br)cc3)c[n+]3c2CCC3)cc1` the lipid storage change, negative = inhibition was inconclusive: -1.47%.
For `COc1cc(S(=O)(=O)NC2CCCC2)c(OC)cc1C`, the lipid storage change, negative = inhibition was inconclusive: -24.3%.
With `O=C(COC(=O)c1cc(S(=O)(=O)N2CCCC2)ccc1O)Nc1ccc(SC(F)F)cc1` the Potency was inconclusive: 9.2 µM [activator, partial curve].
In the case of `Cc1ccc(NC(=O)C2CC(=O)n3c(nc4ccccc43)N2)cc1Cl` (stereo unspecified), the lipid storage change, negative = inhibition is reported as inconclusive: -24%.
With `O=C(Nc1c(C(=O)O)[nH]c2ccccc12)NC1CCCCC1` the lipid storage change, negative = inhibition was inconclusive: 6.09%.
In the case of `CCOC(=O)Cn1nc(C)c(NC(=O)c2ccc([N+](=O)[O-])c(C)c2)c1C`, the lipid storage change, negative = inhibition is reported as inconclusive: -57%.
For `CCCCC1(C(=O)OCC)NC(c2ccc(O)cc2)C2C(=O)N(c3ccccc3)C(=O)C21` (stereo unspecified), the Potency was inconclusive: 4.61 µM [falling, single point].
With `CC(=O)c1ccc(NC(=S)NC(=O)c2c(Cl)c(C)nn2C)cc1` the lipid storage change, negative = inhibition was inconclusive: 18.9%.
For `CC1CCCC(NC(=O)C2CCN(S(=O)(=O)c3cnc[nH]3)CC2)C1C` (stereo unspecified), the Potency was inconclusive: 29.1 µM [activator, single point].
In the case of `OCC[C@H]1C[C@H](O)[C@@H](O)[C@@]2(CCc3ccccc3CO2)O1`, the lipid storage change, negative = inhibition is reported as inconclusive: 14.4%.
In the case of `O=C1C2C3C=CC(CC3)C2C(=O)N1c1ccc(F)cc1` (stereo unspecified), the Potency is reported as inconclusive: 0.0517 µM [falling, full curve, poor fit].
In the case of `CC(=O)NC(Cc1ccccc1)C(=O)OCC(=O)c1ccc(Cl)cc1` (stereo unspecified), the Potency is reported as inconclusive: 2.31 µM [falling, single point].
In the case of `COc1ccc(C2=NOC(COC(=O)c3ccc4ccccc4n3)C2)cc1` (stereo unspecified), the Potency is reported as inconclusive: 16.4 µM [activator, single point].
With `O=C(Nc1ccccc1O)c1cc2cc(Br)ccc2oc1=O` the lipid storage change, negative = inhibition was inconclusive: -67.9%.
With `CCN(C(=O)c1c(N)cnn1C)c1ccccc1` the lipid storage change, negative = inhibition was inconclusive: 15.7%.
For `CCCCC(=O)Nc1ccc(C(N)=O)cc1`, the Potency was inconclusive: 0.184 µM [falling, full curve, poor fit].
With `COc1ccc(CNc2ncc(-c3ccc(Br)cc3)n2C)cc1OC` the Potency was inconclusive: 29.1 µM [falling, single point].
